Data: patent publication US8673270B2, “RGD-containing peptidomimetics and uses thereof” (priority 2008, dated 2014)
Some entries share one result that the patent states for a list of compounds.

System: LNCaP prostate cancer cells
Assay: In-vivo prostate cancer model, IVIS imaging

Row | Structure (SMILES) | Time the conjugate stayed in the tumor
1 | CCC1c2cc3[nH]c(c(CC(=O)OC)c4nc(cc5[nH]c(cc(n2)C1C)c(C(C)=O)c5C)C(C)C4CCC(=O)N[C@H]1CCCNC(=O)[C@H](CC(=O)O)NC(=O)CNC(=O)[C@H](CCCNC(=N)N)NC(=O)NCCNC1=O)c(C(=O)NCCS(=O)(=O)O)c3C (some centres unmarked) [Conjugate 4] | up to 48 hrs
2 | CCC1c2cc3[nH]c(c(CC(=O)OC)c4nc(cc5[nH]c(cc(n2)C1C)c(C(C)=O)c5C)C(C)C4CCC(=O)N[C@H]1CNC(=O)[C@H](CC(=O)O)NC(=O)CNC(=O)[C@H](CCCNC(=N)N)NC(=O)NCCNC1=O)c(C(=O)NCCS(=O)(=O)O)c3C (some centres unmarked) [Conjugate 1] | up to 48 hrs
